Test results as given in the supplement of paper PMC10331698.
± gives the standard deviation of the averaged measurements. Most entries show no effect beyond the scatter of the controls.

Assays:
Assay in all cases: level (log10 ratio to DMSO vehicle control); higher = higher biomarker level / cell amount than vehicle control
[1] = compound: C=C(C)C(=O)OCCC(F)(F)C(F)(F)C(F)(F)C(F)(F)C(F)(C(F)(F)F)C(F)(F)F [(Perfluoro-5-methylhexyl)ethyl 2-methylprop-2-enoate]; conditions: in DMSO
Protocol: (§1)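 BioMAP Diversity Plus panel of 12 human primary cell co-culture systems (3C, 4H, LPS, SAg, BT, BF4T, BE3C, CASM3C, HDF3CGF, KF3CT, MyoF, Mphg). Compounds were added 1 h before stimulation and left for 24 h (MyoF 48 h; BT 72 h for soluble read-outs or 6 d for IgG). Biomarkers were read by ELISA, cytotoxicity by SRB, PBMC viability and proliferation by Alamar Blue. Each well value was divided by the mean of 8 DMSO control wells on the same plate and log10 transformed; duplicate blinded samples were tested at 4 concentrations.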

[2] = compound: C=C(C)C(=O)OCCC(F)(F)C(F)(F)C(F)(F)C(F)(F)C(F)(F)C(F)(F)C(F)(F)C(F)(F)F [8:2 Fluorotelomer methacrylate]; conditions: in DMSO
Protocol: as §1

[3] = compound: COC(=O)CCC(F)(F)C(F)(F)C(F)(F)C(F)(F)F [Methyl 2H,2H,3H,3H-perfluoroheptanoate]; conditions: 2200 nM; in DMSO
Protocol: as §1

[4] = compound: FC(F)(F)C(F)(F)C(F)(F)C(F)(F)C(F)(F)CCI [1-Iodo-1H,1H,2H,2H-perfluoroheptane]; conditions: 2200 nM; in DMSO
Protocol: as §1

[5] = compound: NC(=O)C(F)(F)C(F)(F)C(F)(F)C(F)(F)C(N)=O [Octafluoroadipamide]; conditions: 2200 nM; in DMSO
Protocol: as §1

[6] = compound: NC(=O)C(F)(F)C(F)(F)C(F)(F)C(F)(F)F [Nonafluoropentanamide]; conditions: 2200 nM; in DMSO
Protocol: as §1

[7] = compound: NS(=O)(=O)C(F)(F)C(F)(F)C(F)(F)C(F)(F)C(F)(F)C(F)(F)F [Perfluorohexanesulfonamide]; conditions: 2200 nM; in DMSO
Protocol: as §1

[8] = compound: O=C(O)C(F)(F)C(F)(F)C(=O)O [Tetrafluorosuccinic acid]; conditions: 2200 nM; in DMSO
Protocol: as §1

[9] = compound: O=C(O)C(F)(F)C(F)(F)C(F)(F)C(F)(F)C(F)(F)C(F)(F)C(F)(F)C(F)(F)Cl [9-Chloro-perfluorononanoic acid]; conditions: in DMSO
Protocol: as §1

[10] = compound: O=C(O)CCC(F)(F)C(F)(F)C(F)(F)C(F)(F)C(F)(F)F [2H,2H,3H,3H-Perfluorooctanoic acid]; conditions: 2200 nM; in DMSO
Protocol: as §1

[11] = compound: O=S(=O)(O)C(F)(F)C(F)(F)OC(F)(F)C(F)(F)F [Perfluoro(2-ethoxyethane)sulfonic acid]; conditions: 2200 nM; in DMSO
Protocol: as §1

[12] = compound: O=S(=O)(O)CCC(F)(F)C(F)(F)C(F)(F)C(F)(F)C(F)(F)C(F)(F)F [6:2 Fluorotelomer sulfonic acid]; conditions: in DMSO
Protocol: as §1

[13] = compound: OC(C(F)(F)F)(C(F)(F)F)C(O)(C(F)(F)F)C(F)(F)F [Perfluoropinacol]; conditions: in DMSO
Protocol: as §1

[14] = compound: OCCC(F)(F)C(F)(F)C(F)(F)C(F)(F)F [4:2 Fluorotelomer alcohol]; conditions: 2200 nM; in DMSO
Protocol: as §1

4H:CD106/VCAM-1
level (log10) ([1]; 740 nM): 0.001 ± 0.011 | level (log10) ([1]; 2200 nM): -0.003 ± 0.0099 | level (log10) ([1]; 6700 nM): -0.012 ± 0.016 | level (log10) ([1]; 20000 nM): -0.0005 ± 0.005 | level (log10) ([2]; 740 nM): -0.013 ± 0.03 | level (log10) ([2]; 2200 nM): -0.011 ± 0.023 | level (log10) [3]: 0.005 ± 0.0085 | level (log10) [4]: 0.024 ± 0.071 | level (log10) [5]: 0.003 ± 0.024 | level (log10) [6]: -0.0125 ± 0.00071 | level (log10) [7]: -0.012 ± 0.018 | level (log10) [8]: 0.0205 ± 0.047 | level (log10) ([9]; 2200 nM): -0.032 ± 0.016 | level (log10) ([9]; 6700 nM): -0.0145 ± 0.0078 | level (log10) ([9]; 20000 nM): 0.0035 ± 0.013 | level (log10) [10]: 0.0235 ± 0.023 | level (log10) [11]: -0.004 ± 0.038 | level (log10) ([12]; 2200 nM): 0.0185 ± 0.0064 | level (log10) ([12]; 6700 nM): -0.0415 ± 0.0078 | level (log10) ([12]; 20000 nM): -0.0245 ± 0.0021 | level (log10) ([12]; 60000 nM): -0.0625 ± 0.033 | level (log10) ([13]; 2200 nM): -0.013 ± 0.0014 | level (log10) ([13]; 6700 nM): -0.043 ± 0.018 | level (log10) ([13]; 20000 nM): -0.22 ± 0.02 | level (log10) [14]: 0.017 ± 0.0028

KF3CT:CXCL8/IL-8
level (log10) ([1]; 740 nM): 0.0065 ± 0.022 | level (log10) ([1]; 2200 nM): -0.01 ± 0.023 | level (log10) ([1]; 6700 nM): -0.013 ± 0.037 | level (log10) ([1]; 20000 nM): 0.006 ± 0.03 | level (log10) ([2]; 740 nM): -0.0125 ± 0.0035 | level (log10) ([2]; 2200 nM): -0.0075 ± 0.012 | level (log10) [3]: 0 ± 0.0071 | level (log10) [4]: -0.0005 ± 0.011 | level (log10) [5]: -0.002 ± 0.0099 | level (log10) [6]: -0.0305 ± 0.043 | level (log10) [7]: -0.008 ± 0.0042 | level (log10) [8]: -0.013 ± 0.0028 | level (log10) ([9]; 2200 nM): 0.0085 ± 0.0021 | level (log10) ([9]; 6700 nM): 0.0015 ± 0.021 | level (log10) ([9]; 20000 nM): -0.0025 ± 0.0035 | level (log10) [10]: -0.0065 ± 0.033 | level (log10) [11]: 0.0245 ± 0.018 | level (log10) ([12]; 2200 nM): 0.002 ± 0.04 | level (log10) ([12]; 6700 nM): -0.0005 ± 0.035 | level (log10) ([12]; 20000 nM): -0.001 ± 0.027 | level (log10) ([12]; 60000 nM): -0.0455 ± 0.022 | level (log10) ([13]; 2200 nM): 0.0115 ± 0.013 | level (log10) ([13]; 6700 nM): -0.018 ± 0.011 | level (log10) ([13]; 20000 nM): -0.005 ± 0.0042 | level (log10) [14]: -0.003 ± 0.0099
